Laboratory results: patent US8404435
These are yes or no findings as the source states them, for the method shown. Some binding calls cover weakened binding; strength is not graded here.

Chains of the proteins cited; added tags and fusions are not shown.
UniProt Q00987: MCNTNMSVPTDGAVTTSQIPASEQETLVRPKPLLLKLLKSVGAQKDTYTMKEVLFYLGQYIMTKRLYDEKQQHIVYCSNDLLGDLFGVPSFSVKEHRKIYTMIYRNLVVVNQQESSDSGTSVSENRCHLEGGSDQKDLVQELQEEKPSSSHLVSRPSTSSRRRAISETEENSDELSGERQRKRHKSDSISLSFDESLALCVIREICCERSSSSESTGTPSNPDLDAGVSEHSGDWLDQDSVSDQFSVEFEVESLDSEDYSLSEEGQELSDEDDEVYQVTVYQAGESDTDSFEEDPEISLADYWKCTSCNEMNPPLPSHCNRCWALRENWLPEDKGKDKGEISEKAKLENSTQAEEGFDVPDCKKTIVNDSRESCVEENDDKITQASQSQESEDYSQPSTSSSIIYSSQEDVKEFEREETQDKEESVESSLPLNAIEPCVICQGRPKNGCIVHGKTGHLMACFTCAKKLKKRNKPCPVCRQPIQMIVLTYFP
UniProt Q9NR12: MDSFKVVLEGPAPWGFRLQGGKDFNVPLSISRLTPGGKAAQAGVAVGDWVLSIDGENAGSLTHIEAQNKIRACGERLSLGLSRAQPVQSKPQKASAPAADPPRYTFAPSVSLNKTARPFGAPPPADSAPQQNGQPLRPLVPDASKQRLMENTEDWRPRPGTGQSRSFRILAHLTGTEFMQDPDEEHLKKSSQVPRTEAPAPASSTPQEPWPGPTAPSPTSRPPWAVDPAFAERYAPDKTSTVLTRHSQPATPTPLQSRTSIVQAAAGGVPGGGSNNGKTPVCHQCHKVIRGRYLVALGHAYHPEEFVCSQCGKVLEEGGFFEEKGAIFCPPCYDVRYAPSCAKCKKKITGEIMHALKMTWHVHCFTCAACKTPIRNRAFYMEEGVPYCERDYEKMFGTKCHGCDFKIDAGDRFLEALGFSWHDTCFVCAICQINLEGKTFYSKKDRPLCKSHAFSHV

Key:
[1] = biological target: Mdm2 in cells (HCT116, MEF and other cell lines) (UniProt Q00987); assay: IP in HCT116 p53+/+ or p53-/- cells and MEF cell lines
[2] = biological target: Mdm2 in cells (HCT116, MEF and other cell lines) (UniProt Q00987); assay: IP and Western blot in cells (FIGS. 5A and 5B)
[3] = biological target: His-Mdm2 separated and purified from E. coli (UniProt Q00987); assay: in vitro binding of proteins purified from E. coli (1 µg His-Mdm2, 0.5 µg Enigma), GST pull-down and IP
[4] = biological target: His-Mdm2 separated and purified from E. coli (UniProt Q00987); assay: in vitro ubiquitination assay with IP/IB (FIG. 7C)
[5] = biological target: His-Mdm2 separated and purified from E. coli (UniProt Q00987); assay: in vitro binding, Western blot (FIG. 5C)
[6] = biological target: His-Mdm2 separated and purified from E. coli (UniProt Q00987); assay: IP/IB of binding proteins in the in vitro ubiquitination reaction (FIG. 7C)
[7] = biological target: His-Mdm2 separated and purified from E. coli (UniProt Q00987); assay: summary of the IP and in vitro binding assays (FIGS. 5A to 5C)
[8] = biological target: GST-Mdm2 expressed in 293T cells (UniProt Q00987); assay: GST pull-down from 293T cells transfected with Flag-Enigma and GST-Mdm2, Western blot with Flag antibody (FIG. 6A)
[9] = biological target: GST-Mdm2 expressed in 293T cells (UniProt Q00987); assay: GST pull-down of GST-Mdm2 mutants from 293 cells expressing tagged Enigma, Western blot (FIG. 5D)
[10] = biological target: GST-Mdm2 expressed in 293T cells (UniProt Q00987); assay: IP with Flag antibody, Western blot with GST antibody, 293T cells (FIG. 5E)

Measured: binding

Enigma in cells (HCT116 colon cancer cells and MEF cell lines) (from UniProt Q9NR12 1-457)
binds: [1] | [2]

Enigma protein separated and purified from E. coli (from UniProt Q9NR12 1-457)
binds: [3] | [4] | [5] | [6] | [7]

Flag-Enigma expressed in mammalian cells from pCMV Taq2B (from UniProt Q9NR12 1-457)
binds: [8] | [9] | [10]
